Data reported in PubChem BioAssay AID540276 (National Center for Advancing Translational Sciences (NCATS), 2011).
The whole screen tested about 300,000 compounds, of which about 5,400 (1.8%) were called active. Inconclusive results, whose numbers are uncertain, are shown with a selection of clear calls. Calls come from the whole dose curve; tested in HEK293 cells. Potencies beside an inconclusive call are fits to weak or partial responses and may not hold up.

experiment: qHTS for inhibitors of binding or entry into cells for Marburg Virus; conditions: Marburg virus pseudotyped entry inhibition, cell reporter; activity change, negative = inhibition: at 37.8 µM (top of the series) unless noted
% is set by controls: 0 for no effect and ±100 for the full control effect; potency is the fitted concentration of half-maximal effect.

| SMILES | Potency | activity change, negative = inhibition |
| --- | --- | --- |
| NC(=O)c1ccccc1N/C=C/C(=O)c1ccc(Cl)cc1Cl | active: 5.62 µM |  |
| CCOc1ccc(NC(=O)CN(C)C(=O)c2cc(S(=O)(=O)N3CCCCC3)ccc2C)cc1OCC |  | inactive: 22.3% |
| O=C1C2CCCN2C(=O)N1CCCCN1CCN(c2cccc(Cl)c2)CC1 (configuration not stated) |  | inactive: -43.5% |
| COc1cccc(CNC(=O)c2ccc(CS(=O)(=O)Cc3ccccc3C)o2)c1 | inconclusive: 8.91 µM [inhibitor, partial curve, poor fit] |  |
| CS(=O)(=O)Nc1cccc(C2=NN(C(=O)c3ccco3)C(c3ccco3)C2)c1 (configuration not stated) | inconclusive: 35.5 µM [inhibitor, single point] |  |
| Cc1ccc(CN2CCN(Cc3ccc(-n4cccn4)cc3C)CC2CCO)cc1 (configuration not stated) | inconclusive: 10 µM [inhibitor, partial curve, poor fit] |  |
| CC(=O)Cc1nsc(NC(=O)c2cc(-c3cccc(C(F)(F)F)c3)oc2C)n1 | inconclusive: 5.17 µM [inhibitor, full curve] |  |
| C=C(Br)Cn1cnc2ccccc21 | inconclusive: 35.5 µM [inhibitor, single point] |  |
| COc1ccc(C)cc1NC(=O)CCC(=O)Nc1ccc2nc(N3CCN(C)CC3)cc(C)c2c1 | inconclusive: 7.3 µM [inhibitor, partial curve, poor fit] |  |
| CC(C)(C)c1ccc(/C=C2\Oc3cc(OC(=O)N4CCOCC4)ccc3C2=O)cc1 | inconclusive: 35.5 µM [inhibitor, single point] |  |
| COc1ccc(Nc2nc(C(=O)N(CCO)Cc3ccccc3)cs2)cc1 | inconclusive: 20.6 µM [inhibitor, single point] |  |
| Cc1cccc(Nc2n[nH]c(C)c2[N+](=O)[O-])c1 | active: 12.6 µM |  |
| CCOC(=O)N1CCN(C(=O)COc2cc(C)c(Cl)c(C)c2)CC1 | inconclusive: 3.16 µM [inhibitor, partial curve, poor fit] |  |
| Cc1cc2c(s1)c1cnn(CC(=O)NCCc3ccccc3)c(=O)c1n2C | inconclusive: 5.01 µM [activator, partial curve, poor fit] |  |
| O=C(Nc1cccc(S(=O)(=O)NC2=NCCC2)c1)c1cc(F)c(F)c(F)c1F | inconclusive: 35.5 µM [activator, single point] |  |
| CCOC(=O)c1cccc(NC(=O)/C=C/c2ccc3c(c2)OCO3)c1 | inconclusive: 3.98 µM [inhibitor, partial curve, poor fit] |  |
| O=C(COc1ccccc1)N1CCN(c2ncccn2)CC1 |  | inactive: 14.2% [at 46.1 µM] |
| Cc1cccc(C(=O)NNC(=O)c2ccc3ccccc3c2)c1 | inconclusive: 1.41 µM [inhibitor, single point] |  |
| COc1ccc2nc(SCC(=O)NCc3ccc(S(N)(=O)=O)cc3)[nH]c2c1 |  | inactive: 0.356% [at 46.1 µM] |
| COc1ccc(Nc2c3ccccc3nc3ccccc23)cc1 | inconclusive: 7.08 µM [inhibitor, full curve, poor fit] |  |
| Cc1occc1C(=O)N/N=C/C(Br)=C/c1ccccc1 | inconclusive: 3.55 µM [inhibitor, partial curve, poor fit] |  |
| CC(=O)Cc1nsc(NC(=O)c2ccccc2)n1 |  | inactive: -1.57% |
| CCOc1ccc(-c2nnc(SCc3nc4ccccc4[nH]3)n2N)cc1 |  | inactive: 11.6% |

| SMILES | Potency | activity change, negative = inhibition |
| --- | --- | --- |
| Cc1ccc([C@H]2C[C@@H](n3cc(-c4ccc(F)cc4)nn3)[C@H](O)CN2C(=O)C2CCCCC2)cc1 | inconclusive: 0.0177 µM [inhibitor, full curve, poor fit] |  |
| Fc1ccccc1N1CCN(c2nc(-c3cccs3)nc3ccccc23)CC1 | inactive |  |
| Cc1ccc2cc(C)c(SCC#N)nc2c1 |  | inactive: 1.32% [at 46.1 µM] |
| CCN(C(=O)COC(=O)c1c(C)nn(-c2ccccc2)c1Cl)c1c(N)n(Cc2ccccc2)c(=O)[nH]c1=O |  | inactive: 0.394% |
| CC1CN(C(=O)c2cn3ccccc3n2)CC(C)O1 (configuration not stated) |  | inactive: 14.2% |
| COc1ccc(C(=O)CSc2nnc(NC(=O)C3CC(=O)N(c4ccccc4C)C3)s2)cc1 (configuration not stated) | inconclusive: 7.08 µM [inhibitor, partial curve, poor fit] |  |
| CCOC(=O)Cc1csc(NC(NC(=O)OCC)(C(=O)OCC)C(F)(F)F)n1 (configuration not stated) | inconclusive: 15.8 µM [activator, single point] |  |
| O=C(O)Cc1cccc(=O)c(O)c1C(=O)O | inconclusive: 7.08 µM [activator, partial curve, poor fit] |  |
| O=C(N/N=C/c1cccnc1)c1cc(-c2ccccc2)nc2ccccc12 | active: 3.98 µM |  |
| COc1ccc(-c2csc(NC(=S)NC(=O)/C=C/c3ccc(C(C)C)cc3)n2)cc1OC | inconclusive: 11.2 µM [inhibitor, single point] |  |
| CCOC(=O)c1c(CSC(=N)N)n(-c2ccc(Br)cc2)c2cc(Br)c(OC(C)=O)cc12 | active: 13 µM |  |
| Cc1cc(C(=O)NCCCN2CCN(c3cc(Cl)ccc3C)CC2)n(-c2ccccc2)n1 |  | inactive: 6.48% |
| CNC(=O)C1CC(=O)N(c2ccc(OCC(=O)Nc3ccccc3C)cc2)C1 (configuration not stated) |  | inactive: 5.17% |
| COc1ccc2c(C)cc(SCC(=O)Nc3ncc(Cl)cc3Cl)nc2c1 | inconclusive: 0.708 µM [activator, single point] |  |
| COC(=O)NNC(=O)COc1ccc2ccccc2c1Br | inconclusive: 29.1 µM [activator, single point] |  |
| O=C(NCCCc1nc2ccccc2n1Cc1ccc(Cl)cc1)C1CCCCC1 | inconclusive: 7.08 µM [inhibitor, full curve, poor fit] |  |
| O=C(NNC(=O)c1ccccc1Br)c1cccc(Cl)c1 | inconclusive: 0.259 µM [activator, full curve, poor fit] |  |
| Cc1ccc(NS(=O)(=O)c2ccc(Cl)c(C(=O)Nc3ccccc3-c3nc4ccccc4[nH]3)c2)cc1C | inconclusive: 16.4 µM [inhibitor, single point] |  |
| COc1ccc2[nH]c(=O)c(CN(Cc3cccs3)C(=S)Nc3cccc(C)c3)cc2c1 | active: 4.47 µM |  |
| CCn1c(O)c(/C=N/NC(=O)c2ccccc2)c(=O)n(CC)c1=S | inconclusive: 3.16 µM [activator, partial curve, poor fit] |  |
| COc1cccc(CNS(=O)(=O)c2ccc(N3CCCC3=O)cc2)c1 | inconclusive: 10 µM [inhibitor, partial curve, poor fit] |  |
| Cc1nnc(SCC(=O)Nc2c(Cl)cccc2Cl)n(N)c1=O |  | inactive: 12.2% |
| CSCC[C@H](NC(=O)OC(C)(C)C)c1nnc(SCc2ccc(F)cc2)o1 | inconclusive: 20 µM [inhibitor, partial curve, poor fit] |  |

Looked up by compound from the entries so far, 4 records:

| SMILES | Potency | activity change, negative = inhibition |
| --- | --- | --- |
| Cc1cccc(C(=O)NNC(=O)c2ccc3ccccc3c2)c1 | inconclusive: 1.41 µM [inhibitor, single point] |  |
| C=C(Br)Cn1cnc2ccccc21 | inconclusive: 35.5 µM [inhibitor, single point] |  |
| COc1ccc2c(C)cc(SCC(=O)Nc3ncc(Cl)cc3Cl)nc2c1 | inconclusive: 0.708 µM [activator, single point] |  |
| COc1ccc(C(=O)CSc2nnc(NC(=O)C3CC(=O)N(c4ccccc4C)C3)s2)cc1 (configuration not stated) | inconclusive: 7.08 µM [inhibitor, partial curve, poor fit] |  |

Later entries.

| SMILES | Potency | activity change, negative = inhibition |
| --- | --- | --- |
| O=C(Nc1ccncc1)c1sc2ccccc2c1Cl | inconclusive: 1.41 µM [activator, partial curve, poor fit] |  |
| O=C(Nc1c2c(nn1-c1ccc(Cl)cc1)CS(=O)(=O)C2)c1ccc2c(c1)OCO2 |  | inactive: -8.48% |
| COc1ccc([C@H]2C[C@H](O)[C@@H](n3cc(C4CC4)nn3)CN2Cc2cccs2)cc1 | inconclusive: 0.0125 µM [inhibitor, full curve, poor fit] |  |
| Cc1c(C(=O)N2CCOCC2)[nH]c2ccc(OCc3ccccc3)cc12 | inactive |  |
| CC1CCCN(C(=O)c2ccc3c(c2)OCO3)C1 (configuration not stated) | inconclusive: 6.31 µM [activator, single point] |  |
| CCCCN(C(=O)CSCC(=O)Nc1ccc(OC)cc1)c1c(N)n(CCC)c(=O)[nH]c1=O | inconclusive: 6.31 µM [activator, single point] |  |
| COCCC(=O)N1CCC(n2nccc2NC(=O)CCc2ccccc2)CC1 |  | inactive: -6.31% [at 46.1 µM] |
| Cc1ccc(C)c(NC(=O)/C(C#N)=C/c2cn(CC(=O)NCc3ccco3)c3ccccc23)c1 | inconclusive: 0.447 µM [inhibitor, partial curve, poor fit] |  |
| O=C(NC1CCCCC1)C1CCN(S(=O)(=O)N2CCOCC2)CC1 |  | inactive: 5.88% |
| Cc1ncc(CN2CCCC(CCC(=O)NCc3ccc(F)c(F)c3)C2)s1 (configuration not stated) | inconclusive: 5.62 µM [inhibitor, single point] |  |
| Cc1cccc(NC(=O)CSc2nc(C)c(CC(=O)c3ccc(Br)cc3)c(C)c2C#N)c1C | inconclusive: 3.98 µM [inhibitor, partial curve, poor fit] |  |
| COc1cccc(/C=N/Nc2ccnc(=O)[nH]2)c1O | inconclusive: 1 µM [inhibitor, full curve, poor fit] |  |
| Cc1nc2nc(SCC(=O)NC3CCCCC3)nn2c(C)c1Cc1ccccc1Cl | inconclusive: 35.5 µM [activator, single point] |  |
| COc1ccccc1NC(=O)NC(=O)c1ccccc1 | inconclusive: 3.16 µM [activator, single point] |  |
| CN(C)CCCNc1ncnc2scc(-c3ccccc3)c12 | inconclusive: 35.5 µM [inhibitor, single point] |  |
| O=C(/C=C/c1ccco1)Nc1nc(-c2ccccc2)cs1 | inconclusive: 1.16 µM [activator, single point] |  |
| Cn1c(=O)c2c(nc(SCc3ccccc3)n2Cc2ccc(Cl)cc2)n(C)c1=O |  | inactive: -22.3% [at 46.1 µM] |
| CN(C)CC#CCC(O)(c1ccccc1)C1CCCC1 (configuration not stated) | inconclusive: 8.2 µM [inhibitor, partial curve, poor fit] |  |
| CN(CC(=O)Nc1cccc(F)c1)CC(=O)Nc1ccccc1-c1ccccc1 | inconclusive: 8.91 µM [inhibitor, partial curve, poor fit] |  |
| CCOC(=O)c1[nH]c2ccc(OC)cc2c1NC(=O)CCN1CCSCC1 | inconclusive: 3.26 µM [activator, single point] |  |
| Cc1cccn2c(=O)c3cc(C(=O)NCC4CCCO4)c(=N)n(C4CCCC4)c3nc12 (configuration not stated) | inconclusive: 2.82 µM [inhibitor, partial curve, poor fit] |  |
